Laboratory results as given in the supplement of paper PMC10849652.
The list shows a part of the results.

Sequences of proteins named here, by UniProt entry; tags and fusion partners are left off. A change or cut given only in a name is not applied to a line headed by its entry.
UniProt P13693: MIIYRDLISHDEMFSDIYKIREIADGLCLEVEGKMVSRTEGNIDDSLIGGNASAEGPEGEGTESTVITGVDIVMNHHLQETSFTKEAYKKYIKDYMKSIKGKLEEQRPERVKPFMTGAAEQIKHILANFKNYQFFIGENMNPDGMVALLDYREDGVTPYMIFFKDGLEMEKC
UniProt Q9H497: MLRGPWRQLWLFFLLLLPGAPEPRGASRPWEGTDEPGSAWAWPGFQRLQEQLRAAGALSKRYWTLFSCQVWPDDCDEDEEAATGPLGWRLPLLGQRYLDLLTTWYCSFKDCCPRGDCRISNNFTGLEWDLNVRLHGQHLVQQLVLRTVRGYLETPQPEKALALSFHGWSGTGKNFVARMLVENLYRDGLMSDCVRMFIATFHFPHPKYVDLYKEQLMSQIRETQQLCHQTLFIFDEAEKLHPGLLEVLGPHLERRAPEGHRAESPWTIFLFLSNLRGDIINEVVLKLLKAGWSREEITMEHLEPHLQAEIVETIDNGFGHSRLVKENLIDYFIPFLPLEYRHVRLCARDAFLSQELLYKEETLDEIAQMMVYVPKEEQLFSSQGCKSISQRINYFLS
UniProt Q9Y3Q8: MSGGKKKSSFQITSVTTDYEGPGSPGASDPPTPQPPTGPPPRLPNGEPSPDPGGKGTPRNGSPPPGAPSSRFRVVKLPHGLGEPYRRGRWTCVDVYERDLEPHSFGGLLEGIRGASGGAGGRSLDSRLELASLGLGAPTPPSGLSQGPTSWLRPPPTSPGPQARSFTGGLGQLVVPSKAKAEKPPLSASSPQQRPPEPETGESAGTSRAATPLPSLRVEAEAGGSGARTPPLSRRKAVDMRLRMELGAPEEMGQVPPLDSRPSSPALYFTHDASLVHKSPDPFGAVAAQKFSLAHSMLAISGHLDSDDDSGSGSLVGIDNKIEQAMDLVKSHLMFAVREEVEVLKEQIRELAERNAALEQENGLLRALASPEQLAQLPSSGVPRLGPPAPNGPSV
UniProt Q8WW01: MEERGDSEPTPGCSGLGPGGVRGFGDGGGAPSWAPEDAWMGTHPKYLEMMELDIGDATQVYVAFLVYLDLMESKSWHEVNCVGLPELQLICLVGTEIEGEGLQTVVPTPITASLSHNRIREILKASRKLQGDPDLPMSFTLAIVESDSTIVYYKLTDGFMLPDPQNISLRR
UniProt Q14258, whole entry, looked up: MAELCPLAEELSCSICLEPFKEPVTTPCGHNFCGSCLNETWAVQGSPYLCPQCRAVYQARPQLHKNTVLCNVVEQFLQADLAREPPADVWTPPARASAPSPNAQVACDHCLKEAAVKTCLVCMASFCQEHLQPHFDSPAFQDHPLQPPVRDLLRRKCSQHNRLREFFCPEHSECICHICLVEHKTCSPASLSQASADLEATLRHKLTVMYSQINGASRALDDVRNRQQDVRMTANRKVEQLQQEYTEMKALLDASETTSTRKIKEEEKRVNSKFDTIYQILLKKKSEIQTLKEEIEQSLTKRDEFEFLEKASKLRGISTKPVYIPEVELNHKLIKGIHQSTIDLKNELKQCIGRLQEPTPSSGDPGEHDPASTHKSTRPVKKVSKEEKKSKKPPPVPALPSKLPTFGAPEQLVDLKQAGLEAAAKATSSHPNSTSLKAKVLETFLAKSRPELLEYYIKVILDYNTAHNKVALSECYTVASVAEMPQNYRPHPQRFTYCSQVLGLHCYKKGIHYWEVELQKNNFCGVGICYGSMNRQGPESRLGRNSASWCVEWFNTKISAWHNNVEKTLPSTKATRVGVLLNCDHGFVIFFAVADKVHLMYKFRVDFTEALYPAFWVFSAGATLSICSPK
UniProt O43715: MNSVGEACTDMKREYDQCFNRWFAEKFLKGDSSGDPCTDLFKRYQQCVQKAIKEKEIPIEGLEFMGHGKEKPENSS
UniProt Q96S44: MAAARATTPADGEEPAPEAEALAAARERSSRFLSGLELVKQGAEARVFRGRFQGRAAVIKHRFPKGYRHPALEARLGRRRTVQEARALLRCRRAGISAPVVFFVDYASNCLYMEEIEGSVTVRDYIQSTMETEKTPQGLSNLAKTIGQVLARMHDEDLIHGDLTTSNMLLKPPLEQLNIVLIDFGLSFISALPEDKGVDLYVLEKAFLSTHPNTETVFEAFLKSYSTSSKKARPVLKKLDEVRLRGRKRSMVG
UniProt P48553, whole entry, looked up: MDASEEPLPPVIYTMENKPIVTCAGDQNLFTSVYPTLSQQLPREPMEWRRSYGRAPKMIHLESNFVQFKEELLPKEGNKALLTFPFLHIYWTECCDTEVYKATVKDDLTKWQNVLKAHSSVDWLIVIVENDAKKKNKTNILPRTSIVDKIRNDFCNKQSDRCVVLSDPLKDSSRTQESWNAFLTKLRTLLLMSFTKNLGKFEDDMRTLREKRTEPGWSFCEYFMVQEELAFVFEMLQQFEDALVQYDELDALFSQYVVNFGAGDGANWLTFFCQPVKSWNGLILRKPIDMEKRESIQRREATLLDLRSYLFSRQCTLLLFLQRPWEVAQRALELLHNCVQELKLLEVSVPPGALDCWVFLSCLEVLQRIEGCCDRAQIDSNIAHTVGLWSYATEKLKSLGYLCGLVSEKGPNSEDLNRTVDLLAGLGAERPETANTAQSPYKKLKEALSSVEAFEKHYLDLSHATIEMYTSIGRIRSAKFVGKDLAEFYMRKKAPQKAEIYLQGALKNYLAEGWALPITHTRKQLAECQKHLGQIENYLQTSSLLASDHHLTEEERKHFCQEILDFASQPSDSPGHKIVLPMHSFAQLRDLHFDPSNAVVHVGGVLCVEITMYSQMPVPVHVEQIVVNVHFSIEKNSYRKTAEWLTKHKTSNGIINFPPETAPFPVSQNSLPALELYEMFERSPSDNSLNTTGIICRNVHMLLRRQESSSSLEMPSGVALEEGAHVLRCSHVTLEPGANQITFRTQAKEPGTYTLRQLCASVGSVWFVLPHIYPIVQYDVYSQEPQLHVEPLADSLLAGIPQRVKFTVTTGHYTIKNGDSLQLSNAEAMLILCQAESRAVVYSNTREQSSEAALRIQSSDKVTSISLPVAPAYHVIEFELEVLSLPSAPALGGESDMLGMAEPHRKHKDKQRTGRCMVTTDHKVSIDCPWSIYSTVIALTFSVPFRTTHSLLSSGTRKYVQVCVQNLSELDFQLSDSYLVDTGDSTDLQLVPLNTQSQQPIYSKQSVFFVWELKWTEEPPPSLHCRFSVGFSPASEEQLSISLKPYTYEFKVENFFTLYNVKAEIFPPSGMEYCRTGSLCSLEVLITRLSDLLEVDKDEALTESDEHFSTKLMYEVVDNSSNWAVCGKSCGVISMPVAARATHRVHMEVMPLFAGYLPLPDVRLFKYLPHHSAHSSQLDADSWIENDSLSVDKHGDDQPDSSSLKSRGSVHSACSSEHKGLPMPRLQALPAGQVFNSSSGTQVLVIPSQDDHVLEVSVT
UniProt O94826, whole entry, looked up: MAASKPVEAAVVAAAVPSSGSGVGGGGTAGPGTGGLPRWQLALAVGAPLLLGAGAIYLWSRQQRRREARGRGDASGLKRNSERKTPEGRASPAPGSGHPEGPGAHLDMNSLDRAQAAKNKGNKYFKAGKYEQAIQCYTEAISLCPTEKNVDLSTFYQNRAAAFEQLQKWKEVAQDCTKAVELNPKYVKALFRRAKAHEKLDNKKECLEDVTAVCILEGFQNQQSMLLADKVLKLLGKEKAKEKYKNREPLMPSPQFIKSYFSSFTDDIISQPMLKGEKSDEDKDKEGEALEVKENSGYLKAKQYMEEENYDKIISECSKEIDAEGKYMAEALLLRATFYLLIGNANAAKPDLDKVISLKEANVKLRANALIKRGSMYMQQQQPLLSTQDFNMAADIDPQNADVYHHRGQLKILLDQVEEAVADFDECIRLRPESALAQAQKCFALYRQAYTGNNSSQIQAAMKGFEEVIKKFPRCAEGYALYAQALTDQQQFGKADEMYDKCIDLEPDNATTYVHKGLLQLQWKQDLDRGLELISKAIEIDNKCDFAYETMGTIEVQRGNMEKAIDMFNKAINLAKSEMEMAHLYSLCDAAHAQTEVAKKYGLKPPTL
UniProt O96008: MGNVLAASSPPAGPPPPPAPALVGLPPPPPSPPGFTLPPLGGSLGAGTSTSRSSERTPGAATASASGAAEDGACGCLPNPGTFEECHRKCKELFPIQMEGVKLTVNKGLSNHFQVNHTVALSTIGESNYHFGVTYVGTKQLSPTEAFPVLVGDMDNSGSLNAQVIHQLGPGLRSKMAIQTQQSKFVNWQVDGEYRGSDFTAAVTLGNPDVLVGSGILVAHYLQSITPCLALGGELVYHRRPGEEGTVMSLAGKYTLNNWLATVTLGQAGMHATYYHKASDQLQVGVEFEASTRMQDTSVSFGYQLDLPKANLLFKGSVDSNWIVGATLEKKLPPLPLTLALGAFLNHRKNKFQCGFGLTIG
UniProt P11387: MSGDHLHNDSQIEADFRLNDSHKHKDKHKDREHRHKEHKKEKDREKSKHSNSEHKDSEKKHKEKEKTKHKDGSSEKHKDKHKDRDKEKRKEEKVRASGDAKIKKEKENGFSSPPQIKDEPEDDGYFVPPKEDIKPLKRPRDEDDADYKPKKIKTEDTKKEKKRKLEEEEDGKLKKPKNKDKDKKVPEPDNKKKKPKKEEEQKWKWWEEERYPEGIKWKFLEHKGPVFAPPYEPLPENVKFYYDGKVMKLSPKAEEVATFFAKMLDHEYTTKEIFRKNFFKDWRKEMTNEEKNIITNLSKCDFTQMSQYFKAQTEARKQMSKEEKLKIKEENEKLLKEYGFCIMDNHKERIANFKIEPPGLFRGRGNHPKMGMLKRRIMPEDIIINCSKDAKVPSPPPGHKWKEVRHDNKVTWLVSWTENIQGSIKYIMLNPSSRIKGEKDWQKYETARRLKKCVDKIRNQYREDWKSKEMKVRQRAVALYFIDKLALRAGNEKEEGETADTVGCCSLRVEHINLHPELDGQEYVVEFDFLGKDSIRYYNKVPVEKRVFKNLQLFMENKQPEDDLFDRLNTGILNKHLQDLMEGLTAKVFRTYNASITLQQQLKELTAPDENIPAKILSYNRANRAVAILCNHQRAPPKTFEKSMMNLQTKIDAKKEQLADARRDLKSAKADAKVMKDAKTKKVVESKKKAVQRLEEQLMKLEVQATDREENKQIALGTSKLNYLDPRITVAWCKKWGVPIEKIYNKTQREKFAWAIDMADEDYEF
UniProt Q9Y4K3: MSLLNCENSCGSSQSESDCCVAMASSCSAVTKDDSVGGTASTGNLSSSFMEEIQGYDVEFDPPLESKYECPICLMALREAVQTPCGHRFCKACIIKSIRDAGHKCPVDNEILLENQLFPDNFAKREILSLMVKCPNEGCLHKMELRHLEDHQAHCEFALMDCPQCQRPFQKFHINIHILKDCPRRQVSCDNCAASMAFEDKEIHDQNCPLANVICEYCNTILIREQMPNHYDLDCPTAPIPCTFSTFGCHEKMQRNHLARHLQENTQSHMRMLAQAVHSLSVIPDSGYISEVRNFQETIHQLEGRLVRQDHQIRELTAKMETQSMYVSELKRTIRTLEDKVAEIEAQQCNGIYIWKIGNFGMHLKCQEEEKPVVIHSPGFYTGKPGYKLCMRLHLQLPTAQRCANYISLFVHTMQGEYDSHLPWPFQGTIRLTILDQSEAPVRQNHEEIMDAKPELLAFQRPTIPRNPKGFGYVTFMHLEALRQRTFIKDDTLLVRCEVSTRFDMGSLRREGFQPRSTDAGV
UniProt O95985: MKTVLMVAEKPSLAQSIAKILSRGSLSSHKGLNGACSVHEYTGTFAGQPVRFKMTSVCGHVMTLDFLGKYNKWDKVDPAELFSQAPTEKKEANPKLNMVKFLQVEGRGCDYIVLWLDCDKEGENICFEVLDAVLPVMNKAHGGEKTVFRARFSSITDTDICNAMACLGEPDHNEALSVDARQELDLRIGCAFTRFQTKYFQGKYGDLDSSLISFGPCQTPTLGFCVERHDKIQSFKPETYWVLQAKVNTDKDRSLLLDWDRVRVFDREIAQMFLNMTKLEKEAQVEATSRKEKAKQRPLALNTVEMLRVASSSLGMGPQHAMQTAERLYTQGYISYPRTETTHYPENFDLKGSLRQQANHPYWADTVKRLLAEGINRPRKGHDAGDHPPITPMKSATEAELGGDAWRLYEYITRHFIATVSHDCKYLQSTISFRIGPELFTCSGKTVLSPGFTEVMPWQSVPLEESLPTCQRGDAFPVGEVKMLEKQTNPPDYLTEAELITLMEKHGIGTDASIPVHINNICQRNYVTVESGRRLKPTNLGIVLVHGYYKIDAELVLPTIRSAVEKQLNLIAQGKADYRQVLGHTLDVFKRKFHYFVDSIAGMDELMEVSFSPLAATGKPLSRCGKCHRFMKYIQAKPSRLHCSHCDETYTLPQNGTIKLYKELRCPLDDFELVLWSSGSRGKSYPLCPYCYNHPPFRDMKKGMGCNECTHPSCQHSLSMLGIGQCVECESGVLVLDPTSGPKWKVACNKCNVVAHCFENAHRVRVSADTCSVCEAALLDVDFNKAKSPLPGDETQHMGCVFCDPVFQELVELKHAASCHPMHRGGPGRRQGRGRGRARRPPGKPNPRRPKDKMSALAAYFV

Each target was assayed with C1CCN(C1)C(=O)NC2=CC=CC(=C2)NC3=NC=C(C(=N3)NCCC4=CN=CN4)Br (assay: log2 fold change, soluble protein after heating vs DMSO (PISA); higher = thermal stabilisation; K562 cells, 10 uM, 30 min; active = over 0.2 and 3.5 SD of the protein, either way, in both replicates (recomputed)).
Method in brief: (§1)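 K562 cells at 2×10^6 cells/mL were exposed to 10 μM compound for 30 min, then aliquots were heated for 3 min across 48°C-58°C, pooled, and extracted in PBS containing 0.5% NP-40 at 4°C. The supernatant after 21,000xg for 90 min was taken as soluble protein and measured by TMTpro 16plex LC-MS/MS with channel sums equalised. Thermal stability is reported relative to control samples, with values from duplicates. Fold changes are given on a log2 scale.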

log2 fold change, inactive:
TNFRSF1B (UniProt P20333) 0.02
TPT1 (UniProt P13693) -0.003
TRMT61B (UniProt Q9BVS5) -0.007
TOLLIP (UniProt Q9H0E2) -0.019
TOR1AIP2 (UniProt Q8NFQ8) 0.01
TPM3 isoform 4 (UniProt P06753) 0.078
TOR3A (UniProt Q9H497) 0.018
TOMM22 (UniProt Q9NS69) -0.003
TSC22D4 (UniProt Q9Y3Q8) -0.032
TSEN15 (UniProt Q8WW01) -0.058

These targets were tested with C1CN(CCC1(CC2=CC=C(C=C2)Cl)N)C3=NC=NC4=C3C=CN4 in the same assay as above.
Method in brief: as §1

log2 fold change, inactive:
TRIM25 (UniProt Q14258) -0.181
TOMM34 (UniProt Q15785) -0.034
TRIP11 (UniProt Q15643) -0.139
TRIM24 (UniProt O15164) -0.064
TPP2 (UniProt P29144) 0.149
TSEN34 (UniProt Q9BSV6) 0
TRIAP1 (UniProt O43715) 0.049
TP53RK (UniProt Q96S44) -0.023
TRIP13 (UniProt Q15645) 0.074
TRIO (UniProt O75962) 0.071
TSC22D2 (UniProt O75157) -0.04
TRAPPC10 (UniProt P48553) -0.024
TRMT112 (UniProt Q9UI30) -0.042
TOMM70 (UniProt O94826) 0.016
TOMM40 (UniProt O96008) 0.039
TOP2B (UniProt Q02880) -0.083
TNIK isoform 6 (UniProt Q9UKE5) -0.029
TOR4A (UniProt Q9NXH8) 0.017
TOP1 (UniProt P11387) -0.378
TPM4, A0A2R8Y5V9 0.034
TRAF6 (UniProt Q9Y4K3) 0.082
TRRAP (UniProt Q9Y4A5) 0.049
TOP3B (UniProt O95985) -0.125
TNFRSF1B (UniProt P20333) 0.004
TPT1 (UniProt P13693) 0.011
TRMT61B (UniProt Q9BVS5) -0.035
TOLLIP (UniProt Q9H0E2) -0.044
TOR1AIP2 (UniProt Q8NFQ8) -0.011
TPM3 isoform 4 (UniProt P06753) 0.09
TOR3A (UniProt Q9H497) 0.017
TOMM22 (UniProt Q9NS69) -0.051
TSC22D4 (UniProt Q9Y3Q8) 0.003
TSEN15 (UniProt Q8WW01) 0.057
